## Library screening results

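Viability assay of Plasmodium falciparum sporozoites; the read-out is not stated. The concentration is filed as 10 mM, unlikely as a test dose, so the dose is not known. The record gives no direction; compounds that gave an IC50 in retests scored well above the rest, so higher reads as lower viability. Strong results were mostly tested again. About 34,000 compounds were tested under these conditions; 0.84% (about 280) showed 50% or more at least once.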

Results are given as percent effect. The controls that fix the scale are not given in the record; negative values are as filed. This is an unselected part of the compounds tested. Two or more numbers in one place are separate tests of the same structure; such repeats can differ widely.

Compound,Percent Effect
CC(C)(C)N1CC(C(=O)N2CCN(CCn3cccc3)CC2)CC1=O (stereo not drawn),-2.146%
O=C(O)C(F)(F)F.[H][C@@]12CN(C(=O)C3CCOC3)C[C@]1([H])C(=O)N(Cc1cccnc1)C2 (stereo partly drawn),11.65%
O=C(O)c1cncc(Cc2cccc(F)c2)c1,11.05%
O=C(Nc1cc(C(F)(F)F)c[nH]c1=O)C1CCCNC1 (stereo not drawn),1.19%
Cc1c(C(=O)NCCC(=O)N2CCCC2)oc2c(F)cccc12,-8.343%
CS(=O)(=O)Cc1ccc(CNC(=O)c2cccnc2O)cc1,-12.89%
COc1ccccc1N1CCC(CNCc2ccc(C#N)cc2)C1 (stereo not drawn),17.62%
CC1CN(c2ncccc2C(=O)N[C@@H]2CCCc3ccccc32)CCN1 (stereo partly drawn),19.18%
NC(=O)c1ccc(CN2CCCC(N3CCCC3)C2)cc1 (stereo not drawn),1.127%
O=C(O)C(F)(F)F.O=C(O)C(F)(F)F.[H][C@@]12CN(C(=O)c3ccnnc3)C[C@]1([H])OCCN2CCN1CCCC1,-19.43%
COCCN1CCc2ncnc(N(C)C)c2CC1,7.356%
[H][C@]12C[C@H](CNC(=O)c3ccsc3)O[C@@]1([H])CN(C(=O)c1ccco1)C2,9.457%
COc1ncccc1CNC(=O)c1cccnc1O,6.763%
Cc1cc(C)nc(C2CCN(C(=O)c3cncnc3C)C2)n1 (stereo not drawn),1.966%
Cc1cc(N(C)C)nc(C2COCCN2Cc2csc(C)n2)n1 (stereo not drawn),11.54%
CN(C)c1ncc(CNS(=O)(=O)c2cc(F)ccc2Cl)n1C,8.233%
Cc1ccc(-n2nnc(C(=O)NCCS(N)(=O)=O)c2C2CC2)cc1,-8.013%
CN1CC(C(=O)NC(C)(C)C)CC1=O (stereo not drawn),-10.76%
O=C(Cn1nc(-c2ccc(F)cc2)oc1=O)Nc1ccccc1,5.276%
O=C(CCc1cc2n(n1)CCCNC2)N1CCC(N2CCOC2=O)CC1,11.58%
Cc1ccc(OCC2CCCN(C(=O)CCn3ccccc3=O)C2)cc1 (stereo not drawn),-16.27% and -7.63%
Cc1cccc(CN2CCC3(CCC(CC(=O)N(C)C)CC3)CC2)n1.O=C(O)C(F)(F)F,-2.811%
c1cnn(Cc2ccc(CN3CCC4(CCNCC4)C3)cc2)c1,-3.947%
Cc1ccc([C@@H]2CN(C(=O)c3ccc[nH]3)C[C@H]2NC(=O)C2CC2)cc1,1.975%
O=C(Nc1cc(-c2cccnc2)no1)C1CCCCC1,-10.23%
Cc1ccc(NC(=O)C(C)N2CCCN(c3nccs3)CC2)c(C)c1 (stereo not drawn),15.62%
Cc1cnn(CC2CCCCN2Cc2nc(C)c3ccccc3n2)c1 (stereo not drawn),35.56% and 21.88% and 27.76%
CCS(=O)(=O)N1CCc2c(COCCN(C)C)cncc2C1.O=C(O)C(F)(F)F.O=C(O)C(F)(F)F,7.05%
COc1cccc(CNC(=O)c2nc3c(s2)CCN(C(C)=O)CC3)c1,9.364%
CCS(=O)(=O)N1CCCN(CCCOC)CC1,-8.218%
Cn1ccnc1CC1CCCN(C(=O)Nc2cccn(C)c2=O)C1 (stereo not drawn),-7.441%
O=C(NCC1COC2(CCOCC2)O1)c1csc(-c2cccc(Cl)c2)n1 (stereo not drawn),-4.489%

The first 3 entries again:

CC(C)(C)N1CC(C(=O)N2CCN(CCn3cccc3)CC2)CC1=O (stereo not drawn) gave -2.146%.
O=C(O)C(F)(F)F.[H][C@@]12CN(C(=O)C3CCOC3)C[C@]1([H])C(=O)N(Cc1cccnc1)C2 (stereo partly drawn) gave 11.65%.
O=C(O)c1cncc(Cc2cccc(F)c2)c1 gave 11.05%.

Source: ChEMBL document CHEMBL3988442, “University of Dundee, Small-Polar-MMV Screening Library” (2021).